Assay results from PubChem BioAssay AID651804 (National Center for Advancing Translational Sciences (NCATS), 2012).
Hit rate of the full screen: of about 1,200 compounds, about 20 (2%) were called active. Inconclusive results (about 23%) are left out. Calls follow the shape of the dose curve; as a rule, active = well fitted inhibition curve with a large enough effect; inconclusive = small, poorly fitted or top-dose-only effect; inactive = no such curve, though single readings can be large or run the other way. This is one part of the list.

Amino acid sequences for entries named in this document (tags omitted). A change or cut given only in a name is not applied to a line headed by its entry.
UniProt P11308: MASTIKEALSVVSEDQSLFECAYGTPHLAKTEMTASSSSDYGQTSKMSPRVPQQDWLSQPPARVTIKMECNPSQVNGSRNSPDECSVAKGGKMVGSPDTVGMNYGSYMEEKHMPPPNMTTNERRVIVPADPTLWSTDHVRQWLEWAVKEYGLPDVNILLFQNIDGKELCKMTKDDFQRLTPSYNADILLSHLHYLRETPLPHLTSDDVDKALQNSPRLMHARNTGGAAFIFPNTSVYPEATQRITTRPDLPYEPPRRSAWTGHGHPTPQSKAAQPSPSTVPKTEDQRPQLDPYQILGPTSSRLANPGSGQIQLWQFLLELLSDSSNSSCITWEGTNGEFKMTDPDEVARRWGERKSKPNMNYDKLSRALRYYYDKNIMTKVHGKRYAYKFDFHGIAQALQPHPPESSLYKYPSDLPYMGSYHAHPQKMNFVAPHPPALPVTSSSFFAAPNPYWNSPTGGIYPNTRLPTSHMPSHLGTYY

What follows are compounds tested against Transcriptional regulator ERG (Homo sapiens) (UniProt P11308) (assay: qHTS for Small Molecule Inhibitors of the ERG Ets/DNA interaction: HTRF assay against cherry picks). Conditions: His-ERG Ets domain with biotin-DNA; series mostly up to 154 µM; activity change, negative = inhibition: at the top concentration.
Method in brief: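 Compounds were incubated 10 min at RT with ERG Ets domain and biotinylated DNA (each added as 200 nM solution) in pH 7.5 Tris/KCl/EDTA/DTT buffer. Binding was read as FRET (ex 320, em 615 and 665 nm) between anti-His donor and streptavidin acceptor.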
Potency is read from the fitted curve at half-maximal effect.

| Compound | activity change, negative = inhibition | Potency |
| --- | --- | --- |
| COC(=O)c1c(C(=O)OC)c(-c2ccc(OC)cc2)n2c1CS(=O)C2 (stereo not given) | inactive: -14.5% |  |
| CCCCCCCN=CC1=C(O)CC(c2ccccc2)CC1=O (stereo not given) | inactive: -23.6% |  |
| CC(C)COC(=O)/C(C#N)=C/c1c[nH]c2ccccc12 | inactive: -23.7% |  |
| Nc1cccc2nc3ccccc3cc12 |  | active: 50.1 µM |
| O=C(NCC1CCCO1)C1CC(=O)N(c2ccc(Cl)cc2)C1 (stereo not given) | inactive: -22.3% |  |
| CCC(C)NCCCOc1ccc(C)cc1OC (stereo not given) | inactive: -6.42% |  |
| Cc1ccc(N(Cc2cc(=O)[nH]c3ccccc23)C(=O)CCl)c(C)c1 | inactive: -21% |  |
| Cc1nn(C2CCS(=O)(=O)C2)c(Cl)c1/C=C/C(=O)OCC(=O)c1c[nH]c2ccccc12 (stereo not given) | inactive: -21.3% |  |
| Nc1ccccc1-n1cccc1 | inactive: -10.2% |  |
| Nn1cnnc1N/N=C/c1cccc(Cl)c1Cl | inactive: -27.5% |  |
| COc1cc(OC)cc(C(=O)NCC(=O)OCc2csc(-c3ccccc3)n2)c1 | inactive: 34.1% |  |
| CCOc1ccc2nc(SCC(=O)c3ccc(C)s3)sc2c1 | inactive: -15.2% |  |
| Cc1sc2nc(CSC(C)C(=O)Nc3ccc(C(N)=O)cc3)[nH]c(=O)c2c1C (stereo not given) | inactive: -40.4% |  |
| Oc1ccc(NCc2ccccc2OCc2ccc(Cl)cc2)cc1 | inactive: -27.3% |  |
| COc1ccc(NC(=O)CSCC(=O)N(C)Cc2cccc(OC)c2OC)cc1 | inactive: -28.1% |  |
| CC(C)[C@H](NS(=O)(=O)c1ccccc1F)C(=O)NC1CCCCC1 | inactive: -23.2% |  |
| CCOC(=O)C1(CCc2ccccc2)CCN(C(=O)[C@@H]2C[C@@H](C)NC(=S)N2)CC1 | inactive: -27.4% |  |
| S=C(NCc1ccccc1)Nc1cccc(Cl)c1 | inactive: -18.9% |  |
| COc1ccc(C(c2c(C)n(C)n(-c3ccccc3)c2=O)c2c(C)n(C)n(-c3ccccc3)c2=O)c(OC)c1OC | inactive: -25.1% |  |
| CN(C)c1nc2n(c(=S)n1)CCS2 | inactive: -23.1% |  |
| COc1ccccc1C/C(N)=N/OC(=O)COc1ccc(C)cc1C | inactive: -9.71% |  |
| O=C(COc1ccc(F)cc1)Nc1nnc(-c2ccncc2)s1 | inactive: -1.91% |  |
| CC(=O)Nc1ccc(NC(=O)Cn2c(=O)n(-c3ccccc3)c(=O)c3oc4ccccc4c32)cc1 | inactive: -10.4% |  |
| NC(=O)Nc1ccc(C(=O)OCC(=O)NC2CCCc3ccccc32)cc1 (stereo not given) | inactive: -7.06% |  |
| COc1ccc(NC(=O)c2ccc(NC(=O)c3nc4nccc(C)n4n3)cc2)cc1 | inactive: -29% |  |
| C/C(=N\NC(=O)c1ccc(CSc2nc(C)cc(C)n2)cc1)c1ccco1 | inactive: -18.3% |  |
| C#CCn1c(CCNC(=O)c2ccco2)nc2ccccc21 | inactive: -16.9% |  |
| Cc1ccccc1OCc1nnc(SCC(=O)Nc2ccc(N3CCOCC3)c(Cl)c2)n1C | inactive: -29.5% |  |

| Compound | activity change, negative = inhibition | Potency |
| --- | --- | --- |
| CC(=O)N1CCN(c2nnc(-c3ccccc3)c3ccccc23)CC1 | inactive: 2.55% |  |
| COCCNC(=O)CSc1nc2ccccc2c(=O)n1-c1cccc(OC)c1 | inactive: -25.3% |  |
| Fc1cccc(NC(=S)N2CCN(c3ccccn3)CC2)c1 | inactive: -15% |  |
| CCn1ccc2c(OCC(=O)Nc3ccc(C(C)=O)cc3)cccc2c1=O | inactive: -14.2% |  |
| CCN1CCN(CCCNC(=O)C2CCN(c3nnc(-n4cccc4)s3)CC2)CC1 | inactive: -26.9% |  |
| CCC(Sc1nccn1C)C(=O)Nc1ccc(Cl)cn1 (stereo not given) | inactive: 5.25% |  |
| C/C(=N\NC(=O)c1cc(-c2ccc(Cl)s2)[nH]n1)c1ccncc1 | inactive: -18.7% |  |
| COc1ccc(CNC(=O)c2cccnc2SC)cc1OC | inactive: -28.2% |  |
| COc1ccc(-c2nc3ccccc3c(=O)[nH]2)cc1 | inactive: -7.06% |  |
| CC[C@]12c3[nH]c4ccccc4c3CCN1C(=O)C(CC(=O)NCc1cccc(C(F)(F)F)c1)C[C@@H]2C(=O)N1CCN(C(=O)C2CC2)CC1 (stereo not given in full) | inactive: -22.7% |  |
| Cn1c(CNC(=O)CNC(=O)c2ccc(C(C)(C)C)cc2)cc(=O)n(C)c1=O | inactive: 10.8% |  |
| Cc1ccc(S(=O)(=O)NC2(C(F)(F)F)C(=O)Nc3c2c(=O)[nH]c(=O)n3-c2ccccc2)cc1 (stereo not given) | inactive: -24.5% |  |
| CCCC1OC23CCCCC2C(C#N)(C#N)C1(C#N)C(=N)O3 (stereo not given) | inactive: -12.7% |  |
| Cc1ccc(NC(=O)COC(=O)CCc2ccccc2)cc1S(=O)(=O)N1CCOCC1 | inactive: 6.05% |  |
| Cc1onc(C(=O)NCc2ccccn2)c1[N+](=O)[O-] | inactive: -24.5% |  |
| S=C(NCc1ccco1)N1CCN(c2ccccn2)CC1 | inactive: -8.01% |  |
| CCc1ccc2oc(C(=O)NCC(c3ccc(Cl)cc3)N3CCOCC3)c(C)c2c1 (stereo not given) | inactive: -10.3% |  |
| O=C(NCc1cccnc1)c1ccccc1-c1nc(-c2ccccc2)no1 | inactive: -23.1% |  |
| COc1ccc(/C=N/Nc2cc(N3CCOCC3)ncn2)c(OC)c1 | inactive: -14.2% |  |
| CCCCNc1c2c3c(cccc3n(C)c1=O)C(=O)c1ccccc1-2 | inactive: -28.4% |  |
| COc1cccc2c1cc1c(=O)n(CC(=O)N3CCCC3)nc(C)n12 | inactive: -24.9% |  |
| Cc1ccccc1OCc1nc(-c2ccc(NC(=O)c3ccc4c(c3)OCO4)cc2)no1 | inactive: 40.8% |  |
| CCC(C)NC(=O)Cn1cc(S(=O)(=O)N2CCCC2)c(S(=O)(=O)N2CCCC2)c1 (stereo not given) | inactive: 2.12% |  |
| CCOC(=O)C1=C(CN2CCCCC2)NC(=O)NC1c1cc(C)ccc1C (stereo not given) | inactive: -12.9% |  |
| CCOC(=O)N1CCC(NC(=O)c2sc3nc4n(c(=O)c3c2C)CCCC4)CC1 | inactive: -4.83% |  |
| CC(C)C(NC(=O)CCNC(=O)c1ccc(C(C)(C)C)cc1)c1nc2ccccc2[nH]1 (stereo not given) | inactive: -19.4% |  |
| COc1ccc(OC)c(NC(=O)c2ccc(CN3CCc4ccccc4C3)cc2)c1 | inactive: -17.3% |  |

14 compounds out of the list, ordered by SMILES length, high to low:

| Compound | activity change, negative = inhibition | Potency |
| --- | --- | --- |
| COc1ccc(C(c2c(C)n(C)n(-c3ccccc3)c2=O)c2c(C)n(C)n(-c3ccccc3)c2=O)c(OC)c1OC | inactive: -25.1% |  |
| Cc1ccc(S(=O)(=O)NC2(C(F)(F)F)C(=O)Nc3c2c(=O)[nH]c(=O)n3-c2ccccc2)cc1 (stereo not given) | inactive: -24.5% |  |
| CC(=O)Nc1ccc(NC(=O)Cn2c(=O)n(-c3ccccc3)c(=O)c3oc4ccccc4c32)cc1 | inactive: -10.4% |  |
| CCOC(=O)N1CCC(NC(=O)c2sc3nc4n(c(=O)c3c2C)CCCC4)CC1 | inactive: -4.83% |  |
| COc1cc(OC)cc(C(=O)NCC(=O)OCc2csc(-c3ccccc3)n2)c1 | inactive: 34.1% |  |
| COC(=O)c1c(C(=O)OC)c(-c2ccc(OC)cc2)n2c1CS(=O)C2 (stereo not given) | inactive: -14.5% |  |
| COc1ccc(NC(=O)CSCC(=O)N(C)Cc2cccc(OC)c2OC)cc1 | inactive: -28.1% |  |
| CCOC(=O)C1=C(CN2CCCCC2)NC(=O)NC1c1cc(C)ccc1C (stereo not given) | inactive: -12.9% |  |
| COCCNC(=O)CSc1nc2ccccc2c(=O)n1-c1cccc(OC)c1 | inactive: -25.3% |  |
| O=C(NCc1cccnc1)c1ccccc1-c1nc(-c2ccccc2)no1 | inactive: -23.1% |  |
| Cc1onc(C(=O)NCc2ccccn2)c1[N+](=O)[O-] | inactive: -24.5% |  |
| CCOc1ccc2nc(SCC(=O)c3ccc(C)s3)sc2c1 | inactive: -15.2% |  |
| COc1ccc(CNC(=O)c2cccnc2SC)cc1OC | inactive: -28.2% |  |
| Nn1cnnc1N/N=C/c1cccc(Cl)c1Cl | inactive: -27.5% |  |
